Where a chain is given by its changes, count along the chain named. No constants are given. Whether binding was seen depends on the method and setting. In cells and extracts the contact can be indirect. Some entries that bind do so weakly or less than the wild type. Sequences can lack the tags named with a protein.
Experiments:
[1] = biological target: T1, α-COP-FLAG (E241K), mouse (mouse) (UniProt Q8CIE6); assay: co-IP; α-COP-FLAG immunoprecipitated with anti-FLAG from lysates of transfected HEK293T cells (1% CHAPS, 150 mM NaCl, pH 7.2), western blot
T1 sequence: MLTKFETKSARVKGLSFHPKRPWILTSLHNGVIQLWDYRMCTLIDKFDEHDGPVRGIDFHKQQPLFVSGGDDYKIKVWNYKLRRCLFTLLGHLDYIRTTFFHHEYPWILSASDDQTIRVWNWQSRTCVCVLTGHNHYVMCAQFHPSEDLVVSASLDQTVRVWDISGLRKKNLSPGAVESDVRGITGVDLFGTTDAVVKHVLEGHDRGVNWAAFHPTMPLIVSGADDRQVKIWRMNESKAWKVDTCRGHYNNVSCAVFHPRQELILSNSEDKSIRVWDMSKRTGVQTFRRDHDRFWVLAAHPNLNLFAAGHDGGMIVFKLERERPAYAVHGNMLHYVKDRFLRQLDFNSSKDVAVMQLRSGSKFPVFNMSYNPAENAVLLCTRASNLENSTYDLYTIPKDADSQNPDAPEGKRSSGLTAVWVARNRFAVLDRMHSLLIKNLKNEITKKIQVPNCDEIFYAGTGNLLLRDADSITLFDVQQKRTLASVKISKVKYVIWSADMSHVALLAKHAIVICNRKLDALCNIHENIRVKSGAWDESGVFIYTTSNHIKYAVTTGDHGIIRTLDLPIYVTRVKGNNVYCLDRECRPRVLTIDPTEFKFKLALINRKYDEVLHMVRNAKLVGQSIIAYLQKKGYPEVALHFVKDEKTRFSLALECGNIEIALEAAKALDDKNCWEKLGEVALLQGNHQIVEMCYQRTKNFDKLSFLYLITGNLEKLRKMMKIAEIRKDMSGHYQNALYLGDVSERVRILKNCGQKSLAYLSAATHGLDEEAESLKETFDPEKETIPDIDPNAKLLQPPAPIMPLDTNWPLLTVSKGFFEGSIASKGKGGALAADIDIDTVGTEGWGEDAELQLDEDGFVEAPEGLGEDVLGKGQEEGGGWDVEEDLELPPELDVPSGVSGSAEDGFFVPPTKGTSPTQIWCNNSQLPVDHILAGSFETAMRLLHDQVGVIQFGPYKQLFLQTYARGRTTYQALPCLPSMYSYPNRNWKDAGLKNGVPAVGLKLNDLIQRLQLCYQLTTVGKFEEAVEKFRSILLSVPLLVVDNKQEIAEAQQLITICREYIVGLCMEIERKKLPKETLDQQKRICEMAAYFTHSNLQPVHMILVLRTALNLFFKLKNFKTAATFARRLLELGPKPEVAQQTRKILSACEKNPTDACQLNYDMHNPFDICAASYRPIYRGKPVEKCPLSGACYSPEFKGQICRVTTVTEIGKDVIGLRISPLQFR

Chains of the proteins cited; added tags and fusions are not shown.
UniProt Q64310: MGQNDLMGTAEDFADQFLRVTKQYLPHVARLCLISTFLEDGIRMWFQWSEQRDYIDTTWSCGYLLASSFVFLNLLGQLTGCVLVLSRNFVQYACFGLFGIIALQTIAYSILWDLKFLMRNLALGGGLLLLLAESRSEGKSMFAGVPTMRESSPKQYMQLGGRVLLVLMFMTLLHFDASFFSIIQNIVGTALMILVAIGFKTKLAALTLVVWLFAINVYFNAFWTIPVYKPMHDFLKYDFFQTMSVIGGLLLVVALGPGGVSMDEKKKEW

[2] = biological target: T2, α-COP-FLAG (WT), mouse (mouse) (UniProt Q8CIE6); assay: as above
T2 sequence: T1 sequence with K241E

EGFP-mouse STING (mouse) = biological target: T3, EGFP-mouse STING (mouse) (UniProt Q3TBT3); assay: co-IP; EGFP-STING immunoprecipitated with anti-GFP nanobody beads from lysates of Sting-/- MEFs stably expressing EGFP-STING and HA-Surf4; cells also stimulated with cGAMP or DMXAA for 1 h; western blot
T3 sequence: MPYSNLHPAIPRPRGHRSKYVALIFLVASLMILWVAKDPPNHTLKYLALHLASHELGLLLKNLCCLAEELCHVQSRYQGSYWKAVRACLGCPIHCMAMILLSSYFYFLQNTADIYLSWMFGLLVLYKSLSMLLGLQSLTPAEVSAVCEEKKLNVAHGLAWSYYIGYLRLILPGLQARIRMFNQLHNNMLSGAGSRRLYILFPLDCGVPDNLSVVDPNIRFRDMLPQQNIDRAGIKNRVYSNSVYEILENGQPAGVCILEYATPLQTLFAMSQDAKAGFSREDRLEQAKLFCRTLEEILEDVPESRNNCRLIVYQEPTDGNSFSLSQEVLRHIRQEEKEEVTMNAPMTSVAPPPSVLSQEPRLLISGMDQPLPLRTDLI

Measured: binding

HA-Surf4, mouse (from UniProt Q64310 1-269)
binds: all assays above

Source: paper PMC7782846
